Measurements taken from PMC8384837.
Where a chain is given by its changes, count along the chain named. This is one part of the list. For part of these data: At the low end of the ranking, values are background and their order means little.

What was measured:
Conditions in all cases: yeast three-hybrid, YBZ-1, SC-Leu-His + 0.5 mM 3-AT, 4 days
[1] = molecular target: T1, PUM1 PUF domain R3-DRE C935D + Q939E (UniProt Q14671)
T1 sequence: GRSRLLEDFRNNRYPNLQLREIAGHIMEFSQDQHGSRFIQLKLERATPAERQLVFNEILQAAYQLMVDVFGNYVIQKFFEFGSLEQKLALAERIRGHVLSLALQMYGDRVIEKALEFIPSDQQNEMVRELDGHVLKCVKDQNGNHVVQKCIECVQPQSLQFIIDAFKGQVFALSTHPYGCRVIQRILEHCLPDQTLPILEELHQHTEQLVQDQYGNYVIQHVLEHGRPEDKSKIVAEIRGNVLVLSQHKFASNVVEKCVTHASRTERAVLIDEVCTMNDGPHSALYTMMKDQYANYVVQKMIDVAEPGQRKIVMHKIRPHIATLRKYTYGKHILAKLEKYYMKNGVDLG

[2] = molecular target: T2, PUM1 PUF domain R3-DRL C935D + Q939L (UniProt Q14671)
T2 sequence: T1 sequence with E112L

[3] = molecular target: T3, PUM1 PUF domain R3-DWE C935D + R936W + Q939E (UniProt Q14671)
T3 sequence: T1 sequence with R109W

[4] = molecular target: T4, PUM1 PUF domain R3-DWS C935D + R936W + Q939S (UniProt Q14671)
T4 sequence: T1 sequence with R109W, E112S

[5] = molecular target: T5, PUM1 PUF domain R3-DYE C935D + R936Y + Q939E (UniProt Q14671)
T5 sequence: T1 sequence with R109Y

[6] = molecular target: T6, PUM1 PUF domain R3-DYS C935D + R936Y + Q939S (UniProt Q14671)
T6 sequence: T1 sequence with R109Y, E112S

[7] = molecular target: T7, PUM1 PUF domain R3-ERS C935E + Q939S (UniProt Q14671)
T7 sequence: T1 sequence with D108E, E112S

[8] = molecular target: T8, PUM1 PUF domain R3-ESL C935E + R936S + Q939L (UniProt Q14671)
T8 sequence: T1 sequence with D108E, R109S, E112L

[9] = molecular target: T9, PUM1 PUF domain R3-EWL C935E + R936W + Q939L (UniProt Q14671)
T9 sequence: T1 sequence with D108E, R109W, E112L

[10] = molecular target: T10, PUM1 PUF domain R3-EWV C935E + R936W + Q939V (Homo sapiens) (UniProt Q14671)
T10 sequence: T1 sequence with D108E, R109W, E112V

[11] = molecular target: T11, PUM1 PUF domain R3-EYE C935E + R936Y + Q939E (Homo sapiens) (UniProt Q14671)
T11 sequence: T1 sequence with D108E, R109Y

[12] = molecular target: T12, PUM1 PUF domain R3-FCA C935F + R936C + Q939A (UniProt Q14671)
T12 sequence: T1 sequence with D108F, R109C, E112A

[13] = molecular target: T13, PUM1 PUF domain R3-FCG C935F + R936C + Q939G (UniProt Q14671)
T13 sequence: T1 sequence with D108F, R109C, E112G

[14] = molecular target: T14, PUM1 PUF domain R3-FFG C935F + R936F + Q939G (UniProt Q14671)
T14 sequence: T1 sequence with D108F, R109F, E112G

[15] = molecular target: T15, PUM1 PUF domain R3-FFV C935F + R936F + Q939V (UniProt Q14671)
T15 sequence: T1 sequence with D108F, R109F, E112V

[16] = molecular target: T16, PUM1 PUF domain R3-FIA C935F + R936I + Q939A (Homo sapiens) (UniProt Q14671)
T16 sequence: T1 sequence with D108F, R109I, E112A

[17] = molecular target: T17, PUM1 PUF domain R3-FIG C935F + R936I + Q939G (UniProt Q14671)
T17 sequence: T1 sequence with D108F, R109I, E112G

[18] = molecular target: T18, PUM1 PUF domain R3-FRA C935F + Q939A (UniProt Q14671)
T18 sequence: T1 sequence with D108F, E112A

[19] = molecular target: T19, PUM1 PUF domain R3-FRG C935F + Q939G (UniProt Q14671)
T19 sequence: T1 sequence with D108F, E112G

[20] = molecular target: T20, PUM1 PUF domain R3-FRM C935F + Q939M (UniProt Q14671)
T20 sequence: T1 sequence with D108F, E112M

[21] = molecular target: T21, PUM1 PUF domain R3-FRP C935F + Q939P (UniProt Q14671)
T21 sequence: T1 sequence with D108F, E112P

[22] = molecular target: T22, PUM1 PUF domain R3-FRR C935F + Q939R (Homo sapiens) (UniProt Q14671)
T22 sequence: T1 sequence with D108F, E112R

[23] = molecular target: T23, PUM1 PUF domain R3-FRW C935F + Q939W (UniProt Q14671)
T23 sequence: T1 sequence with D108F, E112W

[24] = molecular target: T24, PUM1 PUF domain R3-FSG C935F + R936S + Q939G (UniProt Q14671)
T24 sequence: T1 sequence with D108F, R109S, E112G

[25] = molecular target: T25, PUM1 PUF domain R3-FSN C935F + R936S + Q939N (UniProt Q14671)
T25 sequence: T1 sequence with D108F, R109S, E112N

[26] = molecular target: T26, PUM1 PUF domain R3-FSR C935F + R936S + Q939R (UniProt Q14671)
T26 sequence: T1 sequence with D108F, R109S, E112R

[27] = molecular target: T27, PUM1 PUF domain R3-FSS C935F + R936S + Q939S (UniProt Q14671)
T27 sequence: T1 sequence with D108F, R109S, E112S

[28] = molecular target: T28, PUM1 PUF domain R3-FWR C935F + R936W + Q939R (Homo sapiens) (UniProt Q14671)
T28 sequence: T1 sequence with D108F, R109W, E112R

[29] = molecular target: T29, PUM1 PUF domain R3-FWS C935F + R936W + Q939S (UniProt Q14671)
T29 sequence: T1 sequence with D108F, R109W, E112S

[30] = molecular target: T30, PUM1 PUF domain R3-FYG C935F + R936Y + Q939G (Homo sapiens) (UniProt Q14671)
T30 sequence: T1 sequence with D108F, R109Y, E112G

[31] = molecular target: T31, PUM1 PUF domain R3-GCD C935G + R936C + Q939D (UniProt Q14671)
T31 sequence: T1 sequence with D108G, R109C, E112D

[32] = molecular target: T32, PUM1 PUF domain R3-GCE C935G + R936C + Q939E (Homo sapiens) (UniProt Q14671)
T32 sequence: T1 sequence with D108G, R109C

[33] = molecular target: T33, PUM1 PUF domain R3-GCK C935G + R936C + Q939K (UniProt Q14671)
T33 sequence: T1 sequence with D108G, R109C, E112K

[34] = molecular target: T34, PUM1 PUF domain R3-GCR C935G + R936C + Q939R (UniProt Q14671)
T34 sequence: T1 sequence with D108G, R109C, E112R

[35] = molecular target: T35, PUM1 PUF domain R3-GCW C935G + R936C + Q939W (UniProt Q14671)
T35 sequence: T1 sequence with D108G, R109C, E112W

[36] = molecular target: T36, PUM1 PUF domain R3-GFF C935G + R936F + Q939F (UniProt Q14671)
T36 sequence: T1 sequence with D108G, R109F, E112F

Q: How did the binding signal (log2 enrichment (interaction score)) [1] turn out when “GGCUAGAACUAGUGGAUCCCCCGGCGCCCGGCGGCUCGAGCCCGGGUAAGUGUAACUAGUCUGCAUGCCGCCGGGCGCCAUGCCUGCAGGUCGACUCUAGAAAACAUG” was run?
A: The binding signal (log2 enrichment (interaction score)) was -4.1.

Q: And the binding signal (log2 enrichment (interaction score)) [2]?
A: The binding signal (log2 enrichment (interaction score)) was < -9.25.

Q: What about the binding signal (log2 enrichment (interaction score)) [3] of the same sequence?
A: The binding signal (log2 enrichment (interaction score)) was -5.33.

Q: What about the binding signal (log2 enrichment (interaction score)) [4] of the same sequence?
A: Its binding signal (log2 enrichment (interaction score)) is < -7.57.

Q: And the binding signal (log2 enrichment (interaction score)) [5]?
A: The binding signal (log2 enrichment (interaction score)) was < -6.71.

Q: And the binding signal (log2 enrichment (interaction score)) [6]?
A: Its binding signal (log2 enrichment (interaction score)) is < -9.08.

Q: And the binding signal (log2 enrichment (interaction score)) [7]?
A: Its binding signal (log2 enrichment (interaction score)) is -8.12.

Q: What about the binding signal (log2 enrichment (interaction score)) [8] of the same sequence?
A: The binding signal (log2 enrichment (interaction score)) was < -6.81.

Q: And the binding signal (log2 enrichment (interaction score)) [9]?
A: Its binding signal (log2 enrichment (interaction score)) is < -9.2.

Q: And the binding signal (log2 enrichment (interaction score)) [10]?
A: Its binding signal (log2 enrichment (interaction score)) is -0.31.

Q: And the binding signal (log2 enrichment (interaction score)) [11]?
A: The binding signal (log2 enrichment (interaction score)) was 0.56.

Q: What about the binding signal (log2 enrichment (interaction score)) [12] of the same sequence?
A: Its binding signal (log2 enrichment (interaction score)) is < -8.54.

Q: What about the binding signal (log2 enrichment (interaction score)) [13] of the same sequence?
A: Its binding signal (log2 enrichment (interaction score)) is -3.33.

Q: What about the binding signal (log2 enrichment (interaction score)) [14] of the same sequence?
A: The binding signal (log2 enrichment (interaction score)) was -3.91.

Q: And the binding signal (log2 enrichment (interaction score)) [15]?
A: The binding signal (log2 enrichment (interaction score)) was -5.23.

Q: What about the binding signal (log2 enrichment (interaction score)) [16] of the same sequence?
A: The binding signal (log2 enrichment (interaction score)) was -2.93.

Q: And the binding signal (log2 enrichment (interaction score)) [17]?
A: Its binding signal (log2 enrichment (interaction score)) is < -8.98.

Q: What about the binding signal (log2 enrichment (interaction score)) [18] of the same sequence?
A: Its binding signal (log2 enrichment (interaction score)) is < -7.44.

Q: What about the binding signal (log2 enrichment (interaction score)) [19] of the same sequence?
A: Its binding signal (log2 enrichment (interaction score)) is -7.47.

Q: And the binding signal (log2 enrichment (interaction score)) [20]?
A: The binding signal (log2 enrichment (interaction score)) was < -7.12.

Q: What about the binding signal (log2 enrichment (interaction score)) [21] of the same sequence?
A: Its binding signal (log2 enrichment (interaction score)) is < -7.49.

Q: And the binding signal (log2 enrichment (interaction score)) [22]?
A: The binding signal (log2 enrichment (interaction score)) was 0.49.

Q: What about the binding signal (log2 enrichment (interaction score)) [23] of the same sequence?
A: Its binding signal (log2 enrichment (interaction score)) is -7.63.

Q: And the binding signal (log2 enrichment (interaction score)) [24]?
A: The binding signal (log2 enrichment (interaction score)) was < -9.64.

Q: What about the binding signal (log2 enrichment (interaction score)) [25] of the same sequence?
A: Its binding signal (log2 enrichment (interaction score)) is < -6.49.

Q: And the binding signal (log2 enrichment (interaction score)) [26]?
A: The binding signal (log2 enrichment (interaction score)) was -6.57.

Q: What about the binding signal (log2 enrichment (interaction score)) [27] of the same sequence?
A: The binding signal (log2 enrichment (interaction score)) was < -7.84.

Q: What about the binding signal (log2 enrichment (interaction score)) [28] of the same sequence?
A: Its binding signal (log2 enrichment (interaction score)) is -0.93.

Q: What about the binding signal (log2 enrichment (interaction score)) [29] of the same sequence?
A: Its binding signal (log2 enrichment (interaction score)) is -2.88.

Q: And the binding signal (log2 enrichment (interaction score)) [30]?
A: The binding signal (log2 enrichment (interaction score)) was -3.6.

Q: What about the binding signal (log2 enrichment (interaction score)) [31] of the same sequence?
A: The binding signal (log2 enrichment (interaction score)) was < -8.32.

Q: And the binding signal (log2 enrichment (interaction score)) [32]?
A: Its binding signal (log2 enrichment (interaction score)) is -1.12.

Q: What about the binding signal (log2 enrichment (interaction score)) [33] of the same sequence?
A: Its binding signal (log2 enrichment (interaction score)) is < -7.61.

Q: What about the binding signal (log2 enrichment (interaction score)) [34] of the same sequence?
A: The binding signal (log2 enrichment (interaction score)) was -3.41.

Q: What about the binding signal (log2 enrichment (interaction score)) [35] of the same sequence?
A: The binding signal (log2 enrichment (interaction score)) was < -9.77.

Q: What about the binding signal (log2 enrichment (interaction score)) [36] of the same sequence?
A: The binding signal (log2 enrichment (interaction score)) was < -7.94.
